Results are given in words; binding and its absence hold for the method and conditions named. In cells and extracts the contact can be indirect. Some entries that bind do so weakly or less than the wild type. Tags and fused reporters may be left off the sequences shown.
Molecular target: T1, N-terminally Flag-tagged human TNF-α–induced protein 2 (TNFAIP2) (human) (UniProt Q03169)
T1 sequence: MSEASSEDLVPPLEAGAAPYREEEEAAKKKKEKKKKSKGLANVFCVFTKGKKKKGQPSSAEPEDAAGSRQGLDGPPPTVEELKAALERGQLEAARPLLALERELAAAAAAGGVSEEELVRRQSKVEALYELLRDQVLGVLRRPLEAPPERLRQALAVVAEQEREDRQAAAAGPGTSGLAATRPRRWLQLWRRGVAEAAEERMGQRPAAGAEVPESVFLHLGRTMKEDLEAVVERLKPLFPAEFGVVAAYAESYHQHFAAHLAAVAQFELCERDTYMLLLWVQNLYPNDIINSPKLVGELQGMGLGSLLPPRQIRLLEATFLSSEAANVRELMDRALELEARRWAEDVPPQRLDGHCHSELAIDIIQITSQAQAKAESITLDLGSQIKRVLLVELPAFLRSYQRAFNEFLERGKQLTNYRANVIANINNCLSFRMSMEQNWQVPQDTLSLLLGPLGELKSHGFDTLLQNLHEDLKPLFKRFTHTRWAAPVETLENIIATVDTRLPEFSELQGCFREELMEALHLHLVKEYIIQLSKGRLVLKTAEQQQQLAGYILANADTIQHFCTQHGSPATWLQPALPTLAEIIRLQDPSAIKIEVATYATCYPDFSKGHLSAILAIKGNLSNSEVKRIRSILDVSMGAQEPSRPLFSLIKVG
Test: co-IP; anti-Flag (M2) antibody and Protein A/G PLUS Agarose on Nonidet P-40 lysates of TNFAIP2-expressing 293 cells transfected with WT or mutant CSF1R plasmid, cultured 2 d without CSF-1; immunoprecipitates blotted with anti-CSF1R and anti-TNFAIP2

Protein sequences, listed by entry. Tags and fused reporters are not part of them. Lines headed by an entry give the natural chain unless they say otherwise; changes in a name come on top.
UniProt P07333: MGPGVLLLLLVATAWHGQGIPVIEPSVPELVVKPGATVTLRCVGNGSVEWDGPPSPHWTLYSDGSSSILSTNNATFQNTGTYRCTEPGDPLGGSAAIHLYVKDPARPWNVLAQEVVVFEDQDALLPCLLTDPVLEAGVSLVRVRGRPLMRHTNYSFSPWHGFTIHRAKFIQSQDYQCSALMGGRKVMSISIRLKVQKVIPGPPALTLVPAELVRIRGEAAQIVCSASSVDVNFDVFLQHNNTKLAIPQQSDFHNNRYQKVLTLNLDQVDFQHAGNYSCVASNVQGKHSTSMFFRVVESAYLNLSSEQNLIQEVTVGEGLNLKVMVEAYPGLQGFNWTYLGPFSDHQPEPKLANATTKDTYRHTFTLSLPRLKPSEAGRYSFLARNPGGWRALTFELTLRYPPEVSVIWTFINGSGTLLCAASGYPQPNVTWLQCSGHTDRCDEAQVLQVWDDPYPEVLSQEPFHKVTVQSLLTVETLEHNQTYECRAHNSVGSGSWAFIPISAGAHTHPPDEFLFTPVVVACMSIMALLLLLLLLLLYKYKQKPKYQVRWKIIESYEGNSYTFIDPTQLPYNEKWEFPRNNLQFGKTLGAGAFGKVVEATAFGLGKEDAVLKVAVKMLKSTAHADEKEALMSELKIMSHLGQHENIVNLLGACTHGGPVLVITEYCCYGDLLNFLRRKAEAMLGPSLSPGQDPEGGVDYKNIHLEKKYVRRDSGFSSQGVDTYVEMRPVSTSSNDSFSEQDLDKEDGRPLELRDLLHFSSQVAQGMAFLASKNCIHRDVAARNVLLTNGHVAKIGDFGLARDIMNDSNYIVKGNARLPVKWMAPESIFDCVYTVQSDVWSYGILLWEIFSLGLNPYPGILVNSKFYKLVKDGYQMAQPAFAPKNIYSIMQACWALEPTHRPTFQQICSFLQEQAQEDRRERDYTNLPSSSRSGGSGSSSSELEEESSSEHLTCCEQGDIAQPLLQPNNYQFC

binding | Substance
no binding | CSF1R 1–537 mutant (C-terminally deleted) (from UniProt P07333 20-537) (domain or fragment)
binds | CSF1R 1–545 mutant (C-terminally deleted) (from UniProt P07333 20-545) (domain or fragment)
binds | WT CSF1R (receptor of CSF-1) (from UniProt P07333 20-972)

— article PMC11821806
